Assay results reported in PubChem BioAssay AID504648 (National Center for Advancing Translational Sciences (NCATS), 2011).
In all, about 390,000 compounds went through this assay and about 610 (0.16%) were called active. Inconclusive means that the source gave no clear call. Such entries were picked first, then a sample of the others. Calls come from the whole dose curve; as a rule, active = well fitted inhibition curve with a large enough effect; inconclusive = small, poorly fitted or top-dose-only effect, or effect the other way, or another doubt; inactive = no such curve, though single readings can be large or run the other way. A potency beside an inconclusive call is a rough fit, not a confirmed value.

test: Nrf2 qHTS screen for inhibitors: counterscreen for cytotoxicity; conditions: A549 ARE-Fluc cells, CellTiter-Fluor viability, 18-24 h; activity change, negative = cytotoxicity: at 46 µM (top of the series)
Outline: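 A549 ARE-Fluc cells in 5% FBS OPTI-MEM, 5000 cells/well, rested 2 h then exposed to compounds in concentration-response for 18-24 h at 37 °C. Viability by CellTiter-Fluor fluorescence (Ex 405/Em 525) after 30 min; luciferase luminescence (BugLite, 15 min, RT) read afterwards.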
% is set by controls: 0 for no effect and ±100 for the full control effect; potency is the fitted concentration of half-maximal effect.

| SMILES | Potency | activity change, negative = cytotoxicity |
| --- | --- | --- |
| O=C1NC[C@H](Cc2ccccc2)N(C[C@H]2CCCN2C[C@H](Cc2ccccc2)N2C[C@H](Cc3ccc(O)cc3)N(CCc3ccccc3)C(=O)C2=O)C1=O | inconclusive: 29.1 µM [falling, partial curve, poor fit] |  |
| CCOC(=O)CC(C#N)c1cn(C)c2ccccc12 (stereo unspecified) | inconclusive: 20.6 µM [activator, partial curve, poor fit] |  |
| CCS(=O)(=O)c1ncc(Cl)c(C(=O)N2CCN(c3cccc(Cl)c3)CC2)n1 | inconclusive: 29.1 µM [falling, single point] |  |
| CN(C)S(=O)(=O)c1cccc(NC(=O)c2cccc(NS(=O)(=O)c3ccccc3)c2)c1 | inconclusive: 20.6 µM [falling, partial curve, poor fit] |  |
| COc1ccc(Cn2c(-c3ccc(C)cc3)nc3c(c(=O)c4ccccc4n3C)c2=O)cc1 | inconclusive: 20.6 µM [falling, partial curve, poor fit] |  |
| CCOC(=O)C(Sc1nnc2c3ccccc3n(CC)c2n1)C(=O)OCC | inconclusive: 32.6 µM [falling, partial curve, poor fit] |  |
| COc1ccc(CC(=O)NCc2ccc3c(c2)CCN3C(=O)c2ccc(Cl)cc2)cc1OC | inconclusive: 5.17 µM [falling, partial curve] |  |
| Cc1ccc(CC(=O)N2CCN(c3cccc(C(F)(F)F)c3)CC2)cc1 |  | inactive: 0.6% |
| CCOC(=O)c1ccc(N2C(=O)c3n[nH]c(-c4cccs4)c3C2c2ccc(C(C)C)cc2)cc1 (stereo unspecified) | inconclusive: 16.4 µM [falling, single point] |  |
| O=c1cc(-c2ccccc2)c2cc(Cl)c3c(c2o1)CN(Cc1ccccc1)CO3 | inconclusive: 20.6 µM [activator, partial curve, poor fit] |  |
| COc1ccc(CNC(=O)C2CCCN(c3ncnc4c3nc3n4CCCCC3)C2)cc1 (stereo unspecified) | inconclusive: 6.51 µM [activator, partial curve, poor fit] |  |
| COc1ccc(C(=O)c2sc(Nc3cccc(OC)c3)c(C(=O)Nc3cccc(C)c3C)c2N)cc1 | inconclusive: 18.4 µM [falling, single point] |  |
| CC(C)(C)C(=O)NCCCNc1ccc([N+](=O)[O-])cc1 | inconclusive: 23.1 µM [falling, partial curve, poor fit] |  |
| COc1ccccc1Cn1ccn(Cc2c(F)cccc2Cl)c(=O)c1=O | inconclusive: 18.4 µM [falling, partial curve] |  |
| Cc1oc(-c2cccc3ccccc23)nc1CN1CCN(c2ncnc3ccccc23)CC1 | inconclusive: 29.1 µM [falling, single point] |  |
| CCCCn1c(NC(=S)Nc2ccccc2)nc2ccccc21 | inconclusive: 20.6 µM [falling, single point] |  |
| Cn1cnnc1SCC(=O)NC(=O)NC1CCCC1 | inconclusive: 2.06 µM [falling, partial curve, poor fit] |  |
| COc1ccc(NC(=O)Nc2ccc(N3CCOCC3)c3nonc23)c(OC)c1 | inconclusive: 9.2 µM [falling, partial curve, poor fit] |  |
| Cc1ccc(C(=O)N2CCN(c3ccc(C(F)(F)F)cn3)CC2)c(C)c1 | inconclusive: 20.6 µM [falling, partial curve, poor fit] |  |
| COCCN1CCc2nc(SCC(=O)Nc3ccc(Br)cc3)[nH]c(=O)c2C1 |  | inactive: -3.93% |
| CCOc1ccccc1C=C1SC(=S)NC1=O | inconclusive: 18.4 µM [falling, partial curve] |  |

Quoted from the listing.
Potency with O=c1cc(-c2ccccc2)c2cc(Cl)c3c(c2o1)CN(Cc1ccccc1)CO3 is entered as inconclusive: 20.6 µM [activator, partial curve, poor fit]
Potency with CCOC(=O)c1ccc(N2C(=O)c3n[nH]c(-c4cccs4)c3C2c2ccc(C(C)C)cc2)cc1 (stereo unspecified) is entered as inconclusive: 16.4 µM [falling, single point]

The results go on:

| SMILES | Potency | activity change, negative = cytotoxicity |
| --- | --- | --- |
| CN(C(=O)CSc1nc2c(c(=O)[nH]1)CCCC2)C1CCCCC1 |  | inactive: 0.337% |
| CC(C)CNc1nc(Oc2ccc(OCC(N)=O)nn2)nc(N2CCOCC2)n1 |  | inactive: 9.06% |
| Cc1cccc(N2CCN(C(=O)c3cccc(S(=O)(=O)N4CCCCC4)c3)CC2)c1C | inconclusive: 23.1 µM [falling, single point] |  |
| CCOC(=O)c1cc(-c2ccccc2)n(CCC(=O)Nc2ccc(Cl)c(C(F)(F)F)c2)c1C | inconclusive: 18.4 µM [falling, partial curve, poor fit] |  |
| CN(C)S(=O)(=O)c1ccc(C(=O)Nc2ccnn2C2CCCCC2)cc1 |  | inactive: -2.18% |
| COc1ccc(Br)cc1CNC(=O)CN1C(=O)C(c2ccccc2)Oc2cccnc21 (stereo unspecified) |  | inactive: 0.226% |
| COc1ccc(NC(=O)C2CCN(c3nc(C)nc4c3CCC4)CC2)cc1 | inconclusive: 9.2 µM [falling, partial curve] |  |
| CCCC1C(C#N)=C(N)Oc2cc(C)n(C)c(=O)c21 (stereo unspecified) |  | inactive: 0.462% |
| CC1CN(C(=O)C(C)N2C(=O)c3ccccc3C2=O)CC(C)O1 (stereo unspecified) | inconclusive: 29.1 µM [falling, partial curve, poor fit] |  |
| O=C(Nc1ccc(Cl)cc1)c1cc2nc(-c3ccco3)cc(C(F)(F)F)n2n1 |  | inactive: -1.4% |
| COc1cc(/C=N/n2c(-c3ccc4c(c3)NC(=O)CO4)csc2=Nc2cccc(C)c2)ccc1O | inconclusive: 16.4 µM [falling, partial curve, poor fit] |  |
| CCC(CO)Oc1cc(NCc2ccc(C(C)(C)C)cc2)c2ncn(C(C)C)c2c1 (stereo unspecified) | inconclusive: 16.4 µM [falling, partial curve, poor fit] |  |
| CC(=O)/C=C/c1ccccc1Oc1c(F)c(F)nc(F)c1F |  | inactive: 8.78% |
| COc1cc(C(CCN2CCCCC2)c2c(OC)cc(OC)c3c2OC(=O)CC3c2ccc(N(C)C)cc2)cc(OC)c1OC (stereo unspecified) |  | inactive: -0.117% |
| COc1ccc(CCNC(=O)c2c(C)nn(-c3ccc(F)cc3)c2-n2cccc2)cc1OC |  | inactive: -7.58% |
| CC(=O)c1cccc(-n2nnnc2SCC(=O)NNC(=O)C2CCCCC2)c1 | inconclusive: 29.1 µM [falling, single point] |  |
| CN(C)CCCNc1oc(-c2cccc(Cl)c2)nc1C#N | inconclusive: 16.4 µM [activator, partial curve, poor fit] |  |
| CC(C)CC(=O)Nc1ccc(C(=O)NN2C(=O)c3ccccc3C2=O)cc1 |  | inactive: -0.159% |
| O=C(NN=Cc1c(O)ccc2ccccc12)C1CC1 | inconclusive: 18.4 µM [falling, single point] |  |
| COc1cc(/C=C2\S/C(=N/S(=O)(=O)Cc3ccccc3)NC2=O)c([N+](=O)[O-])cc1OC | inconclusive: 18.4 µM [falling, partial curve, poor fit] |  |
